Record: PubChem BioAssay AID1259424 (University of Nebraska Medical Center, 2018)
The whole screen tested about 14,000 reagents; below is a part drawn at random. 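Higher correlation or smaller distance means closer resemblance to KSR1 loss; control wells, including KSR1 knockdowns, recur on many plates.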 The numbers tell different reagents against one gene apart. Not all columns of the deposit are shown. Not given: the time to read-out.

- Aim: 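Rank knockdowns across the genome by resemblance to the KSR1 depletion profile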 (primary screen)
- Cells: human HCT116 colon cancer cells
- Reagents: siRNA pool against human genes, 50 nM
- Measurement: 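Log2 levels of six mRNAs (branched-DNA multiplex), adjusted by two reference genes and the non-targeting median, then scored against the average KSR1 knockdown pattern as Pearson r and euclidean distance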
- Reading the numbers: mean correlation with KSR1 profile: higher = expression change more like KSR1 knockdown

mean correlation with KSR1 profile, by target and reagent
TFG: #1 0.0436
TOPBP1: #1 0.655
CLIC5: #1 0.411
SYNRG: #1 -0.107
TRIM8: #1 0.0577
BCAT1: #1 0.53
RBMS1: #1 0.0926; #2 0.659
ACTR8: #1 -0.267
KRT13: #1 -0.266
ZNF397: #1 0.839
TMEM38B: #1 -0.617
GPR146: #1 0.571
PPP6R1: #1 -0.693
HES6: #1 -0.213
USP6: #1 -0.649
KRTAP17-1: #1 0.71
ELMO3: #1 0.362
P3H1: #1 0.0689
TBC1D25: #1 0.384
NME2: #1 0.404
ANAPC13: #1 -0.319
DDX43: #1 -0.425
AGR2: #1 -0.352
GATM: #1 -0.229
PRDM10: #1 0.144
CSNK1D: #1 0.485
CYP2C9: #1 -0.345
PRUNE1: #1 -0.335
SCGN: #1 -0.0644
CCL28: #1 -0.288
MSH6: #1 0.688
NWD2: #1 -0.0563
DNASE1L3: #1 -0.333
ADRA2C: #1 0.523
STK36: #1 0.289
KHDC1: #1 0.137
NLE1: #1 0.385
SPACA1: #1 0.275
EDA: #1 -0.651
KLHL3: #1 -0.411
HORMAD1: #1 0.74
CHMP1A: #1 0.217
PAK1: #1 0.353
CACNB4: #1 0.611
TRIM2: #1 -0.8
VAMP7: #1 -0.203
ATP6AP1: #1 0.306
SERPINA1: #1 0.299
SGSH: #1 0.0329

Reformatted: entries from further up.
target | reagent | mean correlation with KSR1 profile
ZNF397 | 1 | 0.839
TMEM38B | 1 | -0.617
